No constants are given. Whether binding was seen depends on the method and setting. In cells and extracts the contact can be indirect. These calls come from enrichment with a bait or labelling near it, and not all partners need be listed. Tags and fused reporters may be left off the sequences shown.

This assay has as its target T1, MARCH5-PafA-Myc (human) (UniProt Q9NX47).
T1 sequence: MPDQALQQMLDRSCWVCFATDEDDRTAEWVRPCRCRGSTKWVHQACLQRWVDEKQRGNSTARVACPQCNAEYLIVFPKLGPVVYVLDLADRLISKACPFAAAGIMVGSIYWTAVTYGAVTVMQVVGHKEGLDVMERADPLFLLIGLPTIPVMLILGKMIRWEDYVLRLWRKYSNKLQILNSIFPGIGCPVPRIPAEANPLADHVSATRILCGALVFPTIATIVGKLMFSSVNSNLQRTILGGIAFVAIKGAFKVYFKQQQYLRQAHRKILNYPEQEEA
In words: proximity labelling; PUP-IT: MARCH5-PafA-Myc in iPUP Jurkat cells, biotin 4 μM and Dox 2 μg/ml for 48 h; denatured lysate (8 M urea), streptavidin beads, on-bead digestion, MS; control iPUP cells without MARCH5-PafA-Myc; three biological repeats.

B1: PEX3 (endogenous, Jurkat) (protein, UniProt P56589 1-373)
chain: MLRSVWNFLKRHKKKCIFLGTVLGGVYILGKYGQKKIREIQEREAAEYIAQARRQYHFESNQRTCNMTVLSMLPTLREALMQQLNSESLTALLKNRPSNKLEIWEDLKIISFTRSTVAVYSTCMLVVLLRVQLNIIGGYIYLDNAAVGKNGTTILAPPDVQQQYLSSIQHLLGDGLTELITVIKQAVQKVLGSVSLKHSLSLLDLEQKLKEIRNLVEQHKSSSWINKDGSKPLLCHYMMPDEETPLAVQACGLSPRDITTIKLLNETRDMLESPDFSTVLNTCLNRGFSRLLDNMAEFFRPTEQDLQHGNSMNSLSSVSLPLAKIIPIVNGQIHSVCSETPSHFVQDLLTMEQVKDFAANVYEAFSTPQQLEK
With B1, the binding result is reported as “binds”.

The record behind these values is publication PMC8579195.
